From publication PMC12040169 (PLOS Biology, 2025)
The list shows a part of the results.

test system: T1, CTL2-GFP (C. trachomatis L2/434/Bu, GFP-expressing); set-up: species or system HeLa; Intracellular C. trachomatis growth in HeLa cells, bulk GFP fluorescence relative to DMSO; details: bulk GFP, single well; 28.5 h, 10 µM; inhibitor
T1 construct: L2/434/Bu, GFP-expressing

| SMILES | % of control remaining [%] |
| --- | --- |
| O=C(O)c1ccc2[nH]c(=O)[nH]c2c1 [CBK032631] | 164.93 |
| Cn1nc(C2CCN(Cc3ccccc3)CC2)c2cccnc21 [CBK285095] | 120.758 |
| COC(=O)c1ccc(CNc2nc(OC)cc(OC)n2)cc1 [CBK093391] | 108.106 |
| O=C(c1ccncc1)N1CCCC1(CO)Cc1ccccc1 (stereo not shown) [CBK288620] | 123.955 |
| O=C1N[C@@]2(CC3CCC2CC3C(=O)NC2CC2)Nc2ccccc21 (stereo partly shown) [CBK284454] | 123.506 |
| O=C(O)c1cccc2c1C(=O)N(Cc1ccc(F)cc1)C2 [CBK291183] | 152.618 |
| COc1ccc(N2C(N)=C(C#N)C(c3cccc(OC(C)C)c3)C3=C2CCS3(=O)=O)cc1 (stereo not shown) [CBK293992] | 158.907 |
| CC(=O)c1ccc(CN2CCCN(S(=O)(=O)c3ccc(C(F)(F)F)cc3Cl)CC2)cc1 [CBK063106] | 81.7795 |
| CC(Cc1nc(-c2ccnn2C)cs1)n1cc(Cl)cn1 (stereo not shown) [CBK304152] | 106.846 |
| O=C(O)CS(=O)(=O)c1ccc(Cl)cc1 [CBK262036G] | 113.223 |
| Clc1ccc(OCCOc2cncc(N3CCCC3)n2)cc1 [CBK115668] | 103.165 |
| O=C(CN1CCCC1)N1CCCC1c1nc2ccccc2[nH]1 (stereo not shown) [CBK284003] | 114.058 |
| CC(C)(C)OC(=O)N1CCN(C(=O)c2cc(-c3cccnc3)on2)CC1 [CBK305648] | 94.9377 |
| CCN1CCN(c2ccc(NC(=S)NC(=O)c3ccccc3Br)cc2)CC1 [CBK268583] | 86.7912 |
| Cc1ccc(S(=O)(=O)c2cccc(S(=O)(=O)N3CCOCC3)c2)cc1S(=O)(=O)N1CCOCC1 [CBK262117] | 93.2278 |
| Cc1ncsc1CCOc1nccnc1NC(C)C [CBK115728] | 161.436 |
| CCOc1cc(OCC)cc(C(=O)N2CCC3(CC2)NC(=O)c2cc(I)ccc2O3)c1 [CBK166301] | 122.12 |
| CN(CCN1CCCCC1)C(=O)C1(c2ccc(F)cc2)CC1 [CBK282178] | 116.25 |
| O=C(O)c1ccc(/C=C/C(=O)c2ccc3c(c2)OCCO3)cc1 [CBK262173] | 106.551 |
| COc1ccc(C2CC(=O)C3=C(C2)NC(C)=C(C#N)C3c2cccc(F)c2)cc1 (stereo not shown) [CBK293922] | 158.536 |
| O=C(COc1nc2cc3c(nc2o1)CCC3)c1ccccc1 [CBK269407] | 128.106 |
| CC(Cn1cccn1)C(=O)Nc1cccc(N2CCCC2)c1 (stereo not shown) [CBK283249] | 135.152 |
| CN(C)Cc1c(O)ccc2occ(C(=O)c3cccs3)c12 [CBK261959C] | 119.017 |
| O=S(=O)(c1cccs1)N1CCC2(CC1)OCCO2 [CBK057295] | 95.3298 |
| CN(CC(=O)NCc1ccc(Cl)cc1)S(=O)(=O)Cc1ccc(C#N)cc1 [CBK305899] | 128.856 |
| CCn1cc(CN(CCCN(C)C)Cc2ccc(C)o2)c(C)n1 [CBK283201] | 139.332 |
| Cn1nccc1C(=O)NC(Cc1ccsc1)c1nccs1 (stereo not shown) [CBK285138] | 122.989 |

Two compounds picked at random from those above, as already listed:

| SMILES | % of control remaining [%] |
| --- | --- |
| CC(=O)c1ccc(CN2CCCN(S(=O)(=O)c3ccc(C(F)(F)F)cc3Cl)CC2)cc1 [CBK063106] | 81.7795 |
| CC(Cn1cccn1)C(=O)Nc1cccc(N2CCCC2)c1 (stereo not shown) [CBK283249] | 135.152 |

Following part.

| SMILES | % of control remaining [%] |
| --- | --- |
| O=C(Cn1ncc2cccn2c1=O)OC1CCCCC1 [CBK283667] | 120.555 |
| COCCNc1nc(-c2cc(C(C)C)ccc2OC)ccc1C(=O)Nc1cccc(OC)c1 [CBK105904] | 101.352 |
| Cc1cccc(C(=O)Nc2ccc(-c3nnc(-c4ccc(NC(=O)c5cccc(C)c5)cc4)o3)cc2)c1 [CBK261603] | 109.914 |
| COc1ccc(-c2noc(CNC(=O)Nc3ccccc3)n2)cc1OC [CBK269900] | 148.983 |
| O=C(O)c1ccc(N2C(=O)C(=Cc3c4ccccc4cc4ccccc34)SC2=S)cc1 [CBK296101] | 140.57 |
| O=C(NCCOCc1ccc(Cl)cc1)c1cc(-n2cnnc2)ccc1Cl [CBK267939] | 118.943 |
| O=C(CSc1ncccc1C(=O)O)Nc1nnc(Cc2ccccc2)s1 [CBK299835] | 127.189 |
| N#Cc1ccccc1NC(=O)CSc1nc2cc(Cl)ccc2[nH]1 [CBK270019] | 57.9566 |
| Cc1cc(NS(=O)(=O)c2cc(C(=O)O)c(Cl)cc2F)n(C)n1 [CBK067260] | 105.279 |
| CCCn1ncc(CN[C@@H]2CCC[C@H]2Cc2cc(C)no2)c1C [CBK282948] | 117.266 |
| COc1ccc2c(c1)cc(C(=O)N(C)CCCn1nc(C)cc1C)n2C [CBK307196] | 129.842 |
| Cc1nn(-c2ccc(F)cc2)c2c1C(c1ccc(C(=O)O)cc1)CC(=O)N2 (stereo not shown) [CBK286561] | 101.925 |
| COc1cc2c(cc1CNC1CCCc3c1cnn3C)OC(C)C2 (stereo not shown) [CBK304296C] | 95.6832 |
| O=C1NC2(CCN(C(=O)CC3c4ccccc4Oc4ccccc43)CC2)Nc2ccccc21 [CBK286307] | 63.4876 |
| O=C(O)C[C@@H]1CCN(C(=O)NCc2ccccc2)C[C@@H]1CC1=NCCc2ccccc21 [CBK289161] | 135.907 |
| Cc1cccc(C(=O)NCc2nnc(SCC(=O)N3CCOCC3)n2C)c1 [CBK269723] | 119.381 |
| CCCC(CCC)C(=O)Nc1ccc(NC(=O)c2ccco2)c(C)c1 [CBK058263] | 116.25 |
| Cc1cc(C(=O)N2CCCCCC2c2c(Cl)cnn2C)on1 (stereo not shown) [CBK284916] | 85.475 |
| CCCC(=O)N1CCCC(c2nnc(-c3cccs3)o2)C1 (stereo not shown) [CBK283057] | 127.494 |
| Nc1ccc(C(=O)Nc2nc3ccccc3s2)cc1 [CBK287608] | 97.0665 |
| OC(CSc1ccc(F)cc1)CN1CCN(c2ccc(C(F)(F)F)cn2)CC1 (stereo not shown) [CBK074688] | 129.932 |
| Cc1cc2oc(=O)cc(C)c2cc1NC(=O)c1ccccc1C(=O)O [CBK286572] | 102.293 |
| O=C(Nc1nnc(-c2ccc3c(c2)OCCO3)o1)c1ccc2c(c1)OCCO2 [CBK287403] | 170.78 |
| Cn1ncc2c1C(=O)NC1c3ccccc3C(=O)N21 (stereo not shown) [CBK113668] | 155.153 |
| COc1ccc(-n2c(SCC(=O)Nc3cccc(C(C)=O)c3)nc3sc(C)c(C)c3c2=O)cc1 [CBK091806] | 101.284 |
| COc1ccc(C2C(C(=O)O)c3ccccc3C(=O)N2C)cc1 (stereo not shown) [CBK286847] | 133.454 |
| CC1CCN(S(=O)(=O)c2ccc(NC(=O)c3cccc(NC(=O)C(C)C)c3)cc2)CC1 [CBK265653] | 109.76 |

| SMILES | % of control remaining [%] |
| --- | --- |
| CCc1c(C(=O)NCc2cc(C3CC3)[nH]n2)[nH]c2ccc(F)cc12 [CBK282501] | 130.666 |
| COc1ccc(NC(=O)c2cnc(-c3cccc(C)c3)c(-c3ccco3)c2)cc1 [CBK037491] | 112.069 |
| Cc1cccnc1C(c1ccc(F)cc1)N(C)C(=O)C1CCN(CCc2ccc(Br)cc2)CC1 (stereo not shown) [CBK148397] | 80.1783 |
| COc1ccc([C@H]2CN(C(=O)c3ccccc3)[C@@H]3CCN(Cc4ccsc4)C[C@H]23)cc1 [CBK285585] | 88.1261 |
| Cc1cccc(-c2ccc(CC3(C(N)=O)CCN(C(=O)c4ccccc4)CC3)cc2)c1 [CBK285778] | 94.1899 |
| C=CCn1c(S)nnc1CCSCc1ccccc1 [CBK268849] | 137.234 |
| CC(C)NC(=O)N1Cc2nc[nH]c2C[C@H]1C(=O)NCc1ccco1 [CBK288974] | 131.409 |
| CN(C)c1cccc(C(=O)Nc2nc3ccc(S(N)(=O)=O)cc3s2)c1 [CBK287602] | 123.093 |
| CN1CCN(C(=O)c2ccccc2NC(=O)NC2CCCCC2)CC1 [CBK269771] | 135.547 |
| O=S(=O)(Nc1cccc(C(F)(F)F)c1)c1ccc(OC(F)(F)F)cc1 [CBK043554] | 83.8122 |
| O=C(CC1(O)C(=O)N(Cc2ccc3c(c2)OCO3)c2ccccc21)c1cccnc1 (stereo not shown) [CBK269633] | 92.208 |
| O=C(O)c1cc(NC(=O)C2CC2)cc(C(=O)O)c1 [CBK268564] | 141.277 |
| O=C(CCC(=O)Nc1ccccc1)N/N=C/c1ccco1 [CBK261968] | 114.236 |
| O=c1nc(-c2ccco2)oc2ccccc12 [CBK152421] | 102.561 |
| COc1ccc(C2(C(=O)NCc3ccc(OC(F)(F)F)cc3)CC2)cc1 [CBK149823] | 100.962 |
| Cc1cccnc1Nc1ccc(C2CCCCN2Cc2ccc3nccnc3c2)cn1 (stereo not shown) [CBK286133] | 104.244 |
| COc1ccc(CNC(=O)c2cc(S(=O)(=O)N3CCOCC3)cs2)cc1 [CBK307577] | 122.486 |
| Cc1ccc(S(=O)(=O)N(C)CCCC#N)cc1 [CBK085945] | 125.403 |
| CC(=O)c1cc2cnccc2[nH]c1=O [CBK089771] | 155.269 |
| Cc1ccc2nc(CNC(=O)N(C)CCc3c(C)n[nH]c3C)cn2c1 [CBK306984] | 113.056 |
| O=S(=O)(c1ccc(C(F)(F)F)cc1Cl)N1CCN(Cc2ccc(F)cc2F)CC1 [CBK062739] | 94.11 |
| OCC(O)/C=N/Nc1nc(Nc2ccccc2)nc(N2CCCCC2)n1 (stereo not shown) [CBK262042] | 90.8038 |
| CC(=O)N1CCC(NC[C@H]2C[C@@H]3CCN2C[C@@H]3c2cc(C3CCCC3)nc(C)n2)CC1 [CBK289129] | 136.172 |
| FC(F)(F)c1nc2ccccc2nc1SC1CCCCC1 [CBK107205] | 82.1575 |
| COc1cc(OC)nc(C(NC(=O)C2CCN(Cc3cccn3C)CC2)c2ccc(F)cc2)n1 (stereo not shown) [CBK148170] | 105.151 |

An excerpt from above in order of count of non-hydrogen atoms, largest number first:

| SMILES | % of control remaining [%] |
| --- | --- |
| COc1cc(OC)nc(C(NC(=O)C2CCN(Cc3cccn3C)CC2)c2ccc(F)cc2)n1 (stereo not shown) [CBK148170] | 105.151 |
| Cc1cc2oc(=O)cc(C)c2cc1NC(=O)c1ccccc1C(=O)O [CBK286572] | 102.293 |
| COc1ccc(C2C(C(=O)O)c3ccccc3C(=O)N2C)cc1 (stereo not shown) [CBK286847] | 133.454 |
